In US7732666B1, “O-methyltransferase gene from sorghum cloning, expression, transformation and characterization” (priority 2006, dated 2010):

Experiment: Sorgoleone content determination by HPLC of root exudates
Design: species or system Sorghum bicolor
Details: BTx623 seedlings

C=CC/C=C\C/C=C\CCCCCCCC1=C(O)C(=O)C=C(OC)C1=O [sorgoleone, 2-hydroxy-5-methoxy-3-[(Z,Z)-8′,11′,14′-pentadecatriene]-p-benzoquinone]
share of the exudate material: 41 %-w/w
